Test results as given in US20040009147A1.
No constants are given. Whether binding was seen depends on the method and setting. Some entries that bind do so weakly or less than the wild type. Where a sequence is shown, tags or fusion partners need not be part of it.

By UniProt entry, the sequences of proteins in these tests, tags left out. Where a name states a change or a piece, a line headed by the entry shows the natural chain unless it says otherwise. Residues count along the entry.
UniProt P48023, residues 103-281: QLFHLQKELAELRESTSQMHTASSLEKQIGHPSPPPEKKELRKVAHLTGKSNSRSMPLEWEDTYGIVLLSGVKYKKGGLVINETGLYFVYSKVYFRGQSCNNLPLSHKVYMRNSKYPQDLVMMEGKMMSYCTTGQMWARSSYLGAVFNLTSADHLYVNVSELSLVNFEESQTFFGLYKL
UniProt O43557: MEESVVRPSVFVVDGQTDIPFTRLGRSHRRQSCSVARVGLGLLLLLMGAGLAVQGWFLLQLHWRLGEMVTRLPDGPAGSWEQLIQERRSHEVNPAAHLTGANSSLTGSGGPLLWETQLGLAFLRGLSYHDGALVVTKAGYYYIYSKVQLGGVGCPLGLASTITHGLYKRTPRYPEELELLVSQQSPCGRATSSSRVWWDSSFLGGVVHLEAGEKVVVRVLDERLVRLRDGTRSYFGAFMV

How the values were obtained:
[1] = target: FasL-Flag (Flag-tagged soluble FasL) (UniProt P48023); assay: summary sentence of Example 13
[2] = target: Flag-tagged soluble AIM II protein (sAIM II), amino acids 74-240 of AIM II (human) (UniProt O43557); assay: summary sentence of Example 13
[3] = target: Flag-tagged soluble AIM II protein (sAIM II), amino acids 74-240 of AIM II (human) (UniProt O43557); assay: immunoprecipitation in the presence of HVEM/TR2-Fc
[4] = target: FasL-Flag (Flag-tagged soluble FasL) (UniProt P48023); assay: immunoprecipitation with anti-Flag agarose, western blot with anti-poly(His)6
[5] = target: Flag-tagged soluble AIM II protein (sAIM II), amino acids 74-240 of AIM II (human) (UniProt O43557); assay: as above

Measured: binding

B1: TR6-(His), recombinant TR6 (DcR3) with hexa-histidine at the C-terminus (receptor)
chain: VAETPTYPWRDAETGERLVCAQCPPGTFVQRPCRRDSPTTCGPCPPRHYTQFWNYLERCRYCNVLCGEREEEARACHATHNRACRCRTGFFAHAGFCLEHASCPPGAGVIAPGTPSQNTQCQPCPPGTFSASSSSSEQCQPHRNCTALGLALNVPGSSSHDTLCTSCTGFPLSTRVPGAEECERAVIDFVAFQDISIKRLQRLLQALEAPEGWGPTPRAGRAALQLKLRRRLTELLGAQDGALLVRLLQALRVARMPGLERSVRERFLPVHHHHHHH
binds: all assays above
